These results are taken from patent publication US20150072933A1, “NOVEL SEQUENCES FOR THE CONTROL OF REPRODUCTION IN FISH” (Yissum Research Development Company of the Hebrew …, priority 2011, published 2015).

No constants are given. Whether binding was seen depends on the method and setting. Some entries that bind do so weakly or less than the wild type.

For assay [1], the target named is T1, zebrafish Tac3ra (tac3 receptor a, NKB receptor) (zebrafish).
T1 sequence: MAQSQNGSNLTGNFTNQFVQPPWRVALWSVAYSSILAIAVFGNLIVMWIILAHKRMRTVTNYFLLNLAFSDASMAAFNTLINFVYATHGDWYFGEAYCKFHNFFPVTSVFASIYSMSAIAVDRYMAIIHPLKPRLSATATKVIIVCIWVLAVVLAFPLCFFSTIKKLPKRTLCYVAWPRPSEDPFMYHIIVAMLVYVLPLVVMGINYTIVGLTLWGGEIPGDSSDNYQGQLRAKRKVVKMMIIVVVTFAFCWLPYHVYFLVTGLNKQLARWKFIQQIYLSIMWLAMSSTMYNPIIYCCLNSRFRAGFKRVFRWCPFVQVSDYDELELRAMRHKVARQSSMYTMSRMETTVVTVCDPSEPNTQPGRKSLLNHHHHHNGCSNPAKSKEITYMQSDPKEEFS
As to the kind of experiment: inferred from SRE-Luc/CRE-Luc transactivation in receptor-transfected COS-7 cells.

For assay [2], the target named is T2, zebrafish Tac3rb (tac3 receptor b, NKB receptor) (zebrafish).
T2 sequence: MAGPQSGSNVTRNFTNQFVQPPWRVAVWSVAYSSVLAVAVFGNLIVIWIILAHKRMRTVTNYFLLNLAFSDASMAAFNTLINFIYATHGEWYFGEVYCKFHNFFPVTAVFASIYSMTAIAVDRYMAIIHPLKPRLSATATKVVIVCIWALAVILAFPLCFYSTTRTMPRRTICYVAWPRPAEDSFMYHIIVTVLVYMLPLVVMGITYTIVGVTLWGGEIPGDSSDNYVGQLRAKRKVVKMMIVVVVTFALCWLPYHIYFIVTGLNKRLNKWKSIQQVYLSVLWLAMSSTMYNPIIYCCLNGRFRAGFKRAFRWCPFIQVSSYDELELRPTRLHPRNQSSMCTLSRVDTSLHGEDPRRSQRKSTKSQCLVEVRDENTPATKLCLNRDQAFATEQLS
The assay is described as above.

B1: Zebrafish Tac3b peptide, neurokinin Bb (…-NH2) (peptide)
peptide: STGINREAHLPFRPNMNDIFVGLL
modifications: C-terminal amide (-NH2)
Take B1: the binding result in assay [1] and in assay [2] was “binds” in each case.
